Measured values reported in paper PMC11992337.

Test system: Wo (Woolly), HD-ZIP IV
Experiment: EMSA
Details: cold probe competes with increasing amount; Beyotime EMSA/Gel-Shift kit; protein with cold probe 10 min, then labeled probe 20 min, room temperature; polyacrylamide gel; salt and pH not stated; recombinant protein; protein details: MBP (pET-15d, purified with His-tag kit); label: 5' FAM

CATAAAAGGTATGGTAAATGCTATCAGTATATAT (double strand) [SlTCP25-L1-probe]
binding result: binds

Construct, isoform or probe ends are uncertain for at least one entry.
